The target of this experiment is T1, ADNP (mouse ESCs) (mouse (endogenous in mouse ESCs)) (UniProt Q9Z103).
T1 sequence: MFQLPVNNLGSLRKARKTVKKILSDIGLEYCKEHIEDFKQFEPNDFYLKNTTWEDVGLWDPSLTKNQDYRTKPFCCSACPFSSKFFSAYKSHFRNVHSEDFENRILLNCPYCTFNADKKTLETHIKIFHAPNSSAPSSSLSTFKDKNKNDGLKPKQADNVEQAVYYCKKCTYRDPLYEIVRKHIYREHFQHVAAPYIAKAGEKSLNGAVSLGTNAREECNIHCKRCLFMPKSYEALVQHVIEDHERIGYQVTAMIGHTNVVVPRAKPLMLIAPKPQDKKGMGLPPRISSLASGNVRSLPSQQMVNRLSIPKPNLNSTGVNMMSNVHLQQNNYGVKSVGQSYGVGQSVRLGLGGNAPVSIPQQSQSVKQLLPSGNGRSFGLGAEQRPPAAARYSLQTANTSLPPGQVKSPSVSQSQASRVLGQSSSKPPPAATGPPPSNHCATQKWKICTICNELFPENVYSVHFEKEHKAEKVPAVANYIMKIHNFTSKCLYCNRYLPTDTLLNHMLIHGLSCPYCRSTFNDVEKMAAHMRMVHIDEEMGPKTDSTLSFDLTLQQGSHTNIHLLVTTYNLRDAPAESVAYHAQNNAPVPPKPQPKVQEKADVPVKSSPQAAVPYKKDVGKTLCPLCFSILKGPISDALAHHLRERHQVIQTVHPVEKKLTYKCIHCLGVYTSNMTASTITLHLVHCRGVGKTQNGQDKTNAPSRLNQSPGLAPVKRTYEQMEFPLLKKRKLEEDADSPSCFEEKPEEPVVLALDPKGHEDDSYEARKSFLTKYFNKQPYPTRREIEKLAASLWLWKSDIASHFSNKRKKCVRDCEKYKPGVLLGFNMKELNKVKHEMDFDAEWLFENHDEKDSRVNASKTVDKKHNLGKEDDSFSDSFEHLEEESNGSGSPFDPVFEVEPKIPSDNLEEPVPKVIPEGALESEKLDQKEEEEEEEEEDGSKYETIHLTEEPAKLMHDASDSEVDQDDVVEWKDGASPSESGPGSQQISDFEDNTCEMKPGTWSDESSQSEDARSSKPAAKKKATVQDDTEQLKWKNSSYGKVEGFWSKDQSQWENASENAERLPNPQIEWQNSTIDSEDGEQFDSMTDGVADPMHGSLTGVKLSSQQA
The experiment in a line: co-IP.

No constants are given. Whether binding was seen depends on the method and setting. In cells and extracts the contact can be indirect.

B1: POGZ (endogenous, mouse ESCs) (protein, UniProt Q8BZH4 1-1409)
chain: MADTDLFMECEEEELEPWQKISDVIEDSVVEDYNSVDKTTSVSVSQQPVSAPVPIAAHASVAGHLSTSTTVSNSGAQNSDSTKKTLVTLIANNNAGNTLVQQGGQPLILTQNPAPGLGTMVTQPVLRPVQVMQNANHVTSSPVASQPIFITTQGFPVRNVRPVQNAMNQVGIVLNVQQGQTVRPITLVPAPGTQFVKPTVGVPQVFSQMTPVRPGSTMPVRPTTNTFTTVIPATLTIRSTVPQSQSQQTKSTPSTSTTPTATQPTSLGQLAGQPPGQSNQTSNPKLAPSFPSPPAVSIASFVTVKRPGVTGENSNEVAKLVNTLNTVPSLGQSPGPVVVSNNSSAQRTSGPESSVKVTSSIPVFDLQDGGRKICPRCNAQFRVTEALRGHMCYCCPEMVEYQKKGKSLDAEPSVPSAAKPSSPEKTAPVTSTPSSTPIPALSPPTKVPEPNENAGDAVQTKLIMLVDDFYYGRDGGKAAQLTSFPKVATSFRCPHCTKRLKNNIRFMNHMKHHVELDQQNGEVDGHTICQHCYRQFSTPFQLQCHLENVHSPYESTTKCKICEWAFESEPLFLQHMKDTHKPGEMPYVCQVCQYRSSLYSEVDVHFRMIHEDTRHLLCPYCLKVFKNGNAFQQHYMRHQKRNVYHCNKCRLQFLFAKDKIEHKLQHHKTFRKPKQLEGLKPGTKVTIRASRGQPRTVPVSSNDAPSGTLQEAAALTSTDPLPVFLYPPVQRNIQKRAVRKMSVMGRQTCLECSFEIPDFPNHFPTYVHCSLCRYSTCCSRAYANHMINNHVPRKSPKYLALFKNSVSGIKLACTSCTFATSVGDAMAKHLVFNPSHRSSNILPRGLSWMSHLRPGQASERVFDWSMKNTYLPPPLVPNKAATVKPVGVTPAEPQELAGPVLQALPSPASTATPPATPTHPQPSALPPSATEGTECLNVSEQEEGSPVTQDPEPASGGGGGSGVGKKEQLSVKKLRVVLFALCCNTEQAAEHFRNPQRRIRRWLRRFQASQGENLEGKYLSFEAEEKLAEWVLIQREQQLPVNEETLFQKATKIGRSLEGGFKISYEWAVRFMLRHHLTPHARRAVAHTLPKHVAENAGLFIEFVQRQIHNQDLPLSMIVAIDEISLFLDTEVLSSDDRKENALQTVGTGEPWCDVVLAILADGTVLPTLVFFRGQANRFANVPDSILLEAKDSGYSDDEIMELWSTRVWKKHTACQHSKSMLVMDCHRTHLSEEVLALLSASSTLPAVVPAGCSSKIQPLDVCIKRTVKNFLHKKWKEQAREMADAACDSDVLLQLVLVWLGEVLGVIGDSPELVQRSFLVASVLPGPDGNVNSPTRNADMQEELIASLEEQLKLNGEQSEEHSASAPRPRSSPEETVEPESLHQLFEGESETESFYGFEEADLDLMEI
On to B1, for which the binding entry was “no binding”.

Values taken from paper doi:10.1101/2021.02.07.430173.
